Results: PubChem BioAssay AID651550 (National Center for Advancing Translational Sciences (NCATS), 2012)
The campaign covered roughly 360,000 compounds. About 1,100 (0.31%) were called active. This list was built around the results that the source calls inconclusive (neither active nor inactive); the mix of calls is not that of the screen. No stated cut-off is given here; in the data, active means activity change below about -80%; inconclusive means mostly about -51% to -80%; inactive means weaker than that.

target: RAC-alpha serine/threonine-protein kinase (Homo sapiens) (UniProt P31749); experiment: HTS Assay for Inhibitors of Akt Phophorylation: Primary Screen; conditions: Neuro2A IGF-stimulated pAkt S473 HTRF, 20 min; at 50 µM, stronger effect = lower value
Summary of the method: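 Single-point screen (50 µM final compound) in Neuro2A cells stimulated 20 min with 6 nM IGF at 37 deg C. After lysis, Ser473-phosphorylated Akt read by HTRF (ex 330 nm, em 615/665 nm) as the 665/615 ratio.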
On the % scale 0 is the no-effect control and ±100 the full control effect.

| SMILES | activity change |
| --- | --- |
| Cc1ccc(NS(=O)(=O)c2ccc(NC(=O)c3ccc(-c4ccccc4)cc3)cc2)c(C)c1 | inconclusive: -57.4% |
| COC(=O)c1cc2c(-c3ccccc3)c(C)c3ccccn3c-2c1C(=O)OC | inconclusive: -53.5% |
| CSc1nnc(NC(=O)c2ccc(S(=O)(=O)N3CCOCC3)cc2)s1 | inactive |
| COc1ccc(OC)c(-n2nnnc2SCC(=O)NCc2ccc3c(c2)OCO3)c1 | inconclusive: -71.9% |
| Cc1ccc(-n2ncc3c(NCc4ccccc4)ncnc32)cc1 | inconclusive: -50% |
| C[C@@]12C(=O)N(c3ccc(C(F)(F)F)cc3)C(=O)N1[C@@H]1c3ccccc3OC[C@@H]1[C@H]2c1ccccc1 | inactive |
| CN1C(=O)c2cccc(NCCCN3C(=O)c4ccccc4C3=O)c2C1=O | inconclusive: -53.1% |
| COc1cc(OC)cc(-c2nc(-c3ccc(Br)cc3)no2)c1 | inconclusive: -55.3% |
| Cc1ccc(C(=O)CSc2nc(C)cc(SCc3nnc(-c4ccccc4)o3)n2)cc1 | inconclusive: -69% |
| COc1ccc2nc(NC(=O)c3ccoc3C)sc2c1 | active: -110% |
| Cc1cc(-n2c(=S)sc3c(=O)n(-c4ccc(F)cc4)c(SCC(=O)O)nc32)ccc1Cl | inactive |
| CC(=O)c1cccc(NC(=O)CSc2nnc(-c3ccc(S(=O)(=O)N4CCCC4)cc3)o2)c1 | inconclusive: -75% |
| COc1ccc(-n2nc3cc(C)c(NC(=S)NC(=O)c4ccccc4C)cc3n2)cc1 | inconclusive: -61.6% |
| O=C(c1cccc(NS(=O)(=O)c2ccc(F)c(F)c2)c1)N1CCN(C(c2ccccc2)c2ccccc2)CC1 | inactive |
| COc1ccc(CCN2C(=O)c3[nH]nc(-c4ccccc4O)c3C2c2cccc(Cl)c2)cc1 (stereo not given) | inactive: -0.744% |
| O/N=C1\CCc2cc(Cl)ccc21 | active: -102% |
| CCOC(=O)c1ccccc1NC(=O)Cn1cnc2c(oc3ccccc32)c1=O | inconclusive: -53.6% |
| O=C(C1=C(O)C(=O)N(CC2CCCO2)C1c1cccnc1)c1ccco1 (stereo not given) | inconclusive: -66.1% |
| O=C(NCC1CCCO1)c1c(O)c2cccc3c2n(c1=O)CCC3 (stereo not given) | inconclusive: -75.3% |
| COc1cccc(/C=N/n2c(C3CCCCC3)n[nH]c2=S)c1OC | inactive |
| CCn1cnc2sc(C(=O)N(Cc3ccc(N(C)C)cc3)Cc3ccco3)c(C)c2c1=O | active: -109% |
| Cc1ccc(C)n1-c1ccc(-c2ccn[nH]2)cc1 | inactive |
| COc1ccc(C)cc1NC(=O)c1ccc2c(SCC(=O)O)c3c(nc2c1)CCCC3 | inactive |

| SMILES | activity change |
| --- | --- |
| CC(C)OC(=O)CSc1nc(-c2ccc(F)cc2)nc2ccc(F)cc12 | inconclusive: -52.1% |
| CCOC(=O)C(CC)n1cnc2c(oc3ccccc32)c1=O (stereo not given) | active: -113% |
| CCCn1c(-c2ccc(OC)cc2)nc2nc3ccccc3nc21 | inconclusive: -72% |
| COC(=O)c1sc2nc(-c3ccccc3)c3c(c2c1N)CCCC3 | inconclusive: -79.5% |
| COc1ccc(-c2nc3c(c(=O)[nH]c(=O)n3Cc3ccccc3)n2C)cc1 | inconclusive: -79.9% |
| CC(=O)Nc1ccc(C(=O)CSc2ncn(-c3ccccc3)n2)cc1 | active: -120% |
| O=C(Nc1nnc(SCc2ccccc2)s1)c1cc2c(s1)CCCC2 | inconclusive: -67% |
| Clc1ccc(-c2nnc(-c3ccc(Br)o3)o2)c(Cl)c1 | inconclusive: -56.1% |
| COC(=O)c1ccc(COc2ccc3c4c(c(=O)oc3c2)CCC4)o1 | inconclusive: -71.2% |
| Cc1ccc(O)c(NC(=O)c2cc([N+](=O)[O-])ccc2Cl)c1 | inactive |
| CCOC(=O)c1cccc(NC(=O)c2cnccn2)c1 | inconclusive: -68.9% |
| COc1cc(SC)ccc1C(=O)Nc1ccc(S(=O)(=O)N2CCCC2)cc1 | inconclusive: -65% |
| CCN1C(=O)/C(=C\N2CCN(c3cccc(Cl)c3)CC2)SC1=S | inconclusive: -61.9% |
| O=[N+]([O-])c1ccc(N/N=C/c2c[nH]c3ccccc23)c(S(=O)(=O)Nc2ccc(Cl)cc2)c1 | inactive |
| COc1ccc(NC(=O)CSc2ncccc2C(=O)OC(C)C)cc1OC | inconclusive: -76.7% |
| CCOC(=O)COc1ccc(S(=O)(=O)Nc2ccc(C)cc2)cc1 | inconclusive: -65.8% |
| COc1ccc([N+](=O)[O-])cc1NCc1cccc([N+](=O)[O-])c1 | inactive |
| Cc1ccc2c(c1)CC1(CN2C)C(=O)OC(C)(C)OC1=O | inconclusive: -55.9% |
| CCOC(=O)N1CCC(NC(=O)c2ccc(NC(=O)C3CCCO3)cc2)CC1 (stereo not given) | inconclusive: -65.2% |
| CCc1cc(=O)[nH]c(SCC(=O)Nc2cc(C)on2)n1 | inactive |
| C/C=C/c1ccc(OCCCCN2CC(C)CC(C)C2)c(OC)c1 (stereo not given) | inactive |
| COc1cc2c(C#N)c(N3CCCCC3)nc(N)c2c(N)n1 | inconclusive: -69.3% |
| CC1(C(=O)O)CC(C)(C(=O)O)CC(C)(C(=O)O)C1 (stereo not given) | active: -119% |

A different layout for some results above.
SMILES	activity change
CCOC(=O)C(CC)n1cnc2c(oc3ccccc32)c1=O (stereo not given)	active: -113%
CCCn1c(-c2ccc(OC)cc2)nc2nc3ccccc3nc21	inconclusive: -72%
COC(=O)c1sc2nc(-c3ccccc3)c3c(c2c1N)CCCC3	inconclusive: -79.5%
COc1ccc(-c2nc3c(c(=O)[nH]c(=O)n3Cc3ccccc3)n2C)cc1	inconclusive: -79.9%
CC(=O)Nc1ccc(C(=O)CSc2ncn(-c3ccccc3)n2)cc1	active: -120%
O=C(Nc1nnc(SCc2ccccc2)s1)c1cc2c(s1)CCCC2	inconclusive: -67%

The results go on.

| SMILES | activity change |
| --- | --- |
| CCOC(=O)c1c(NC(=O)CSc2n[nH]c(CNc3ccccc3)n2)sc(C)c1C | inconclusive: -62.6% |
| COc1cc2c(C#N)c(N3CCN(c4ccccc4OC)CC3)nc(N)c2c(N)n1 | inconclusive: -61.9% |
| Cc1ccc2c(CN3CCCc4ccccc43)cc(=O)oc2c1C | inconclusive: -59.9% |
| Cc1ccc(C)c(NC(=O)CSc2nnc(-c3n[nH]c4ccccc34)o2)c1 | inactive |
| COc1cc(/C=C2\SC(=S)N(NS(=O)(=O)c3ccccc3)C2=O)ccc1O | inactive |
| CCOC(=O)C1CCCN(C(=O)CC(c2ccccc2)c2ccccc2)C1 (stereo not given) | inconclusive: -74.8% |
| CCc1c(C)sc(NC(=O)c2cc(C)on2)c1C#N | inconclusive: -60.7% |
| COc1cccc(NC(=O)CSc2nc3c(c(-c4ccco4)c2C#N)CCCC3)c1 | inconclusive: -51.9% |
| COc1cccc(C2C(C(=O)c3cc4ccccc4o3)=C(O)C(=O)N2c2cc(C)on2)c1OC (stereo not given) | inconclusive: -67.3% |
| O=C(Cc1cccs1)NCc1cccnc1 | active: -93.2% |
| O=C(NCc1ccc(F)cc1)N[C@@H](Cc1ccccc1)C(=O)O | inconclusive: -62.1% |
| CCOc1cccc(C2C(C#N)=C(N)Oc3cc(C)n(Cc4ccccn4)c(=O)c32)c1OCC (stereo not given) | inconclusive: -67.4% |
| COc1ccccc1NS(=O)(=O)c1ccc2nc(CCl)[nH]c2c1 | inactive |
| CCOc1cccc2cc(C(=O)Nc3cc(C)on3)c(=O)oc12 | inconclusive: -51.4% |
| N#Cc1c(-c2ccccc2)nc(SCc2nc(N)nc(N3CCCCC3)n2)[nH]c1=O | inconclusive: -50.2% |
| Cc1ccc2nc(C3CCN(CC(=O)Nc4ccc5c(c4)OCCO5)CC3)[nH]c2c1 | inconclusive: -69.7% |
| CC(C)c1nc2sc3c(NCc4ccccc4)ncnc3c2c2c1COC(C)(C)C2 | inconclusive: -54.6% |
| COc1ccc(NC(=O)CCN2CCN(C/C=C/c3ccccc3)CC2)cc1 | inactive |
| COc1cc(OC)cc(-c2nnc(SCC(=O)N3CCCc4ccccc43)o2)c1 | active: -116% |
| O=C(NCc1ccco1)C(Cc1ccccc1)NS(=O)(=O)c1cccc2nsnc12 (stereo not given) | inconclusive: -79.8% |
| O=C(CC1C(=O)NCCN1Cc1cccc(F)c1)NC1CCCCCC1 (stereo not given) | inactive |
| COc1ccccc1N1CCN(CCc2n[nH]c(=S)n2-c2ccccc2)CC1 | inconclusive: -60.1% |
| Cc1cc(C)nc(N2CCC(C(=O)Nc3ccc4c(c3)CCC4)CC2)n1 | inconclusive: -69.3% |

| SMILES | activity change |
| --- | --- |
| COc1ccc(C2C3=C(CC(C)(C)CC3=O)Nc3c2c(=O)[nH]c(=O)n3Cc2ccccc2)cc1 (stereo not given) | active: -102% |
| O=C(O)c1ccc(NS(=O)(=O)/C=C/c2ccccc2)cc1O | inconclusive: -63.1% |
| COc1cc2c(C#N)c(N3CCOCC3)nc(N)c2c(N)n1 | inconclusive: -50.6% |
| COc1cccc(CN2CC(C(=O)NCCc3ccc(C)o3)CCC2=O)c1 (stereo not given) | inactive |
| CCOc1cc2[nH]c(=S)n(Cc3ccc(C(=O)NCCOC)cc3)c(=O)c2cc1OCC | inconclusive: -79.9% |
| COc1cccc(-c2ccc(-c3noc(-c4cccs4)n3)c(OC)n2)c1 | inconclusive: -53.7% |
| CCN(CC)S(=O)(=O)c1ccc(NC2CCCc3ccccc32)nc1 (stereo not given) | inconclusive: -67.8% |
| CCOC(=O)c1sc(NC(=O)CSc2nnnn2-c2ccc(C)cc2C)nc1C | inconclusive: -56.7% |
| O=S(c1ccccc1)c1ccccc1 | inactive |
| CC(=O)Nc1ccc(S(=O)(=O)N2CCN(c3cc(C)ccc3C)CC2)cc1 | inactive |
| Cc1cc(NC(=O)Nc2cccc(C(F)(F)F)c2)no1 | inconclusive: -60.9% |
| Cn1nnnc1SCCNC/C=C/c1ccccc1 | inconclusive: -74% |
| Clc1ccc(Sc2cnc3ccccc3n2)cc1 | inconclusive: -60% |
| CCOC(=O)c1cc(C(=O)OCC)c2cc(Br)ccc2n1 | inconclusive: -66.6% |
| O=c1[nH]c(SCCOc2ccccc2)nc2ccccc12 | inconclusive: -77.3% |
| O=C(CN1C(=O)c2ccccc2C1=O)NN1C(=O)c2ccccc2C1=O | inconclusive: -64% |
| O=C(Nc1ccc2c(c1)OCO2)C1CCN(c2ccc(S(=O)(=O)N3CCOCC3)cc2)CC1 | inconclusive: -65% |
| O=C(C1CC1)N1CCc2cc(Br)cc(S(=O)(=O)NCc3ccco3)c21 | inconclusive: -53.4% |
| CC(=O)Nc1ccc(NS(=O)(=O)c2cc([N+](=O)[O-])ccc2C)cc1 | inactive |
| Cc1ccc(NC(=O)COc2ccc(C(=O)NCCc3ccccc3)cc2)cc1 | inconclusive: -60% |
| CN(CC(=O)Nc1ccc(F)cc1)C(=O)COC(=O)c1cccc(N(C)C)c1 | inactive |
